In the supplement of paper PMC11006884:
This list holds what a sample rich in targets with a hit left over. This is a noisy data set. This is a selection; strong and weak results do not stand in their true shares.

Protein sequences, listed by entry. Tags and fused reporters are not part of them. Lines headed by an entry give the natural chain unless they say otherwise; changes in a name come on top.
UniProt P09960: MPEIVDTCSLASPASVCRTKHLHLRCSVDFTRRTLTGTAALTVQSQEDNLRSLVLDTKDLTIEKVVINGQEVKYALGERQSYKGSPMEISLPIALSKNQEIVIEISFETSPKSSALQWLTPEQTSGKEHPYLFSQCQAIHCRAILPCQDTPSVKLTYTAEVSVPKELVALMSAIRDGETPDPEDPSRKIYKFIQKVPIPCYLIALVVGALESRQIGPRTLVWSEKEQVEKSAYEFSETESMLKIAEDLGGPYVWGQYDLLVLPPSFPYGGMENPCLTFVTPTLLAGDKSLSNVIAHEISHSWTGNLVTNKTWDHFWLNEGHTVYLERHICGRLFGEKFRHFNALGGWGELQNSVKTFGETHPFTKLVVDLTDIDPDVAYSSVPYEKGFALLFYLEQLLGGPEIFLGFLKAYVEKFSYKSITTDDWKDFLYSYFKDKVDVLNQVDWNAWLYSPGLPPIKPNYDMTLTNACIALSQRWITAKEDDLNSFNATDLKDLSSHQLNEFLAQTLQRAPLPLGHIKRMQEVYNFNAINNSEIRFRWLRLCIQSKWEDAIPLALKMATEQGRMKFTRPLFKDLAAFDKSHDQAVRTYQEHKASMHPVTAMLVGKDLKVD
UniProt P11387: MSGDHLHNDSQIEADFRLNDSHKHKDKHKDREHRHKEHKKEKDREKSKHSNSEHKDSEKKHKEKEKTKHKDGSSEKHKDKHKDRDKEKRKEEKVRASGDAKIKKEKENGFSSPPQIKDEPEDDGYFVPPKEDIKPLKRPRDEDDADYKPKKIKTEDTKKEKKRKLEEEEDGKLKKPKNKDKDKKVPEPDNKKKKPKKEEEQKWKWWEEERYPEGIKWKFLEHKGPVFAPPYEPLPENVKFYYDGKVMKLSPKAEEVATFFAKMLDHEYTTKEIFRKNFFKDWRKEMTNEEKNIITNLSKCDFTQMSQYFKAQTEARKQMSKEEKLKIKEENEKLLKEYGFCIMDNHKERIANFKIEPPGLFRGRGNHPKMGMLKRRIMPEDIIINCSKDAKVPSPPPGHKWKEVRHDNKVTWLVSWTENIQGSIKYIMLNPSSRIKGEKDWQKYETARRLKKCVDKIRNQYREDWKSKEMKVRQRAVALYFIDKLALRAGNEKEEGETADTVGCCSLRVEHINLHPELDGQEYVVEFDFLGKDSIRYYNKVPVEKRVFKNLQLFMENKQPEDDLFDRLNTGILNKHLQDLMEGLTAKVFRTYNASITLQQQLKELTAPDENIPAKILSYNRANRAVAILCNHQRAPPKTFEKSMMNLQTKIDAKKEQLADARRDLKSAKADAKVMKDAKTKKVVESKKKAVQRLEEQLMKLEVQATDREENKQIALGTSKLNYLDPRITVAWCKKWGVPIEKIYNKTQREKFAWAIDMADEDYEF
UniProt P14866: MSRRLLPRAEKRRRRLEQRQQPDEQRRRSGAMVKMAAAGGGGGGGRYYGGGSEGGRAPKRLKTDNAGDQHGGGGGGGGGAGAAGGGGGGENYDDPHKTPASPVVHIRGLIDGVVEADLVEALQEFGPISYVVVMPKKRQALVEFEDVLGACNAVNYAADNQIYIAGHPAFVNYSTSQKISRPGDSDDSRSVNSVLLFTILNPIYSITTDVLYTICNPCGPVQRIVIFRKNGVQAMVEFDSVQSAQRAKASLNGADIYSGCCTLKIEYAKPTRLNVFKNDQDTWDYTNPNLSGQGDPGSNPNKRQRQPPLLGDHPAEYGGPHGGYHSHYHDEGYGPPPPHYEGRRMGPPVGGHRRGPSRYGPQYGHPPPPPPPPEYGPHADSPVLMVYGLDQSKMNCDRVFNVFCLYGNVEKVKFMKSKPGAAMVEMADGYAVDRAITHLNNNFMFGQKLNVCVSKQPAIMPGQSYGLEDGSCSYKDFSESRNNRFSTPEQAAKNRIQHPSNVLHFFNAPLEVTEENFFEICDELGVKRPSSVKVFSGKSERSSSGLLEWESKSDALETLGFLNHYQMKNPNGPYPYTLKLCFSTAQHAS
UniProt P09874, whole entry, looked up: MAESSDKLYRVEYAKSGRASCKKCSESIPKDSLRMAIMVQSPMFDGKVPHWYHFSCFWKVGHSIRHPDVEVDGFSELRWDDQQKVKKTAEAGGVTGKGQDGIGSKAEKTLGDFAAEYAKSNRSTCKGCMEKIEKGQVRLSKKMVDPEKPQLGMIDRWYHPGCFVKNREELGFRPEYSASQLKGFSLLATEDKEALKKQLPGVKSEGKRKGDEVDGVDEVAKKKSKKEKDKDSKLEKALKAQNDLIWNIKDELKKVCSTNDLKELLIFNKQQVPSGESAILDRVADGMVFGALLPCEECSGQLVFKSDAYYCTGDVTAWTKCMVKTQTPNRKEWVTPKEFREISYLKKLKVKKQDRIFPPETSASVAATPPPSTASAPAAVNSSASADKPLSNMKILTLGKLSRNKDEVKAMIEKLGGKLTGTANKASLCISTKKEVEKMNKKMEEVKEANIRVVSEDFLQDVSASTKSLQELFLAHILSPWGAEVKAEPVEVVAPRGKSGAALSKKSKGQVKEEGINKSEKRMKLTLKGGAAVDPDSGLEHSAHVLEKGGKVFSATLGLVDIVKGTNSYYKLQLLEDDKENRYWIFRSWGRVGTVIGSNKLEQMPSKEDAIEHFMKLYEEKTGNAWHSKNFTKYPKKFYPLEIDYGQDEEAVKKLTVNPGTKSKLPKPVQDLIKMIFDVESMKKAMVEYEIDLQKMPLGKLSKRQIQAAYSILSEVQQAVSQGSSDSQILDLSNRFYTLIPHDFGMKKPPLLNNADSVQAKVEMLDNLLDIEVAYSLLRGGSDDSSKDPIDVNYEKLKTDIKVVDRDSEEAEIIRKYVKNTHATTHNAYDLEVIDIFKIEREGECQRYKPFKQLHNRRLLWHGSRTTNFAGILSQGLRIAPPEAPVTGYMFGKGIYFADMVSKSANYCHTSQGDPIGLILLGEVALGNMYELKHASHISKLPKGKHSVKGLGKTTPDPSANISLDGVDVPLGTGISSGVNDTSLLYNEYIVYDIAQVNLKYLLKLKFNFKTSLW
UniProt P16615: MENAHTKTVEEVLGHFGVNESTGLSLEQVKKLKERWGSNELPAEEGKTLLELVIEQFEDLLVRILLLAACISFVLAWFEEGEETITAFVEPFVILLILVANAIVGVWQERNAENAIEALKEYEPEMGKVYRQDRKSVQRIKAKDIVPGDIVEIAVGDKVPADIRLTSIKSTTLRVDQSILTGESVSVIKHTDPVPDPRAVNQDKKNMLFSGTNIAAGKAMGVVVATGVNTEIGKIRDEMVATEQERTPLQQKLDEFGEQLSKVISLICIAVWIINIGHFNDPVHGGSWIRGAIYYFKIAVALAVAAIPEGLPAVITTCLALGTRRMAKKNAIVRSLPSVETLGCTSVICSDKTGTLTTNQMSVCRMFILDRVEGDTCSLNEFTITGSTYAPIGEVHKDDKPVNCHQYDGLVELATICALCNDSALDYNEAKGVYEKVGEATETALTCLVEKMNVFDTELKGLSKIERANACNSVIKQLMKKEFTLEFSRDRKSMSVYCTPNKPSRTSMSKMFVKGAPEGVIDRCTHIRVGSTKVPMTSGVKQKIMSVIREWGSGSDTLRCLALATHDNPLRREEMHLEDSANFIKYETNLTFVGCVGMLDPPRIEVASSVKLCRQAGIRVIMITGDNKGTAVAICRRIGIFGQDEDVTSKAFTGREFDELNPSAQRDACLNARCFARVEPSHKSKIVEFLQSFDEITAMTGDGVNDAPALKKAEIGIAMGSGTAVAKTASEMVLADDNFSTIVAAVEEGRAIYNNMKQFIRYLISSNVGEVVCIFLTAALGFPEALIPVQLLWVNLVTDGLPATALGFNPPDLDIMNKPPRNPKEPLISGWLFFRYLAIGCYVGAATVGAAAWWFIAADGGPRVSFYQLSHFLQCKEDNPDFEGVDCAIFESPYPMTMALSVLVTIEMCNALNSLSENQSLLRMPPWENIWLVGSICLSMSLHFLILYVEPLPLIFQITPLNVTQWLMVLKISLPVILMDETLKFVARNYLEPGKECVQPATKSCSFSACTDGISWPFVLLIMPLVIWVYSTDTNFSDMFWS
UniProt P17706: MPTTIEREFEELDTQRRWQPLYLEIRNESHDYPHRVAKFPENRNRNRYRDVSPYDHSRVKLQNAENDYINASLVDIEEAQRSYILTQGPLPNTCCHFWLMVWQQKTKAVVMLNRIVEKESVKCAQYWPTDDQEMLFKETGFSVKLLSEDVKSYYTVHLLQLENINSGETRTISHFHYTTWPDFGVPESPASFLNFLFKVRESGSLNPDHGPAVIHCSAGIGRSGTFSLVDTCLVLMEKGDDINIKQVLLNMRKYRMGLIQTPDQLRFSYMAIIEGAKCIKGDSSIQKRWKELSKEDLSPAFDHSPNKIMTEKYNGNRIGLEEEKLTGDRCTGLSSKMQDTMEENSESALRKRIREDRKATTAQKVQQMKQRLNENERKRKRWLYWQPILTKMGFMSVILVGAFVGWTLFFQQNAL
UniProt P07814: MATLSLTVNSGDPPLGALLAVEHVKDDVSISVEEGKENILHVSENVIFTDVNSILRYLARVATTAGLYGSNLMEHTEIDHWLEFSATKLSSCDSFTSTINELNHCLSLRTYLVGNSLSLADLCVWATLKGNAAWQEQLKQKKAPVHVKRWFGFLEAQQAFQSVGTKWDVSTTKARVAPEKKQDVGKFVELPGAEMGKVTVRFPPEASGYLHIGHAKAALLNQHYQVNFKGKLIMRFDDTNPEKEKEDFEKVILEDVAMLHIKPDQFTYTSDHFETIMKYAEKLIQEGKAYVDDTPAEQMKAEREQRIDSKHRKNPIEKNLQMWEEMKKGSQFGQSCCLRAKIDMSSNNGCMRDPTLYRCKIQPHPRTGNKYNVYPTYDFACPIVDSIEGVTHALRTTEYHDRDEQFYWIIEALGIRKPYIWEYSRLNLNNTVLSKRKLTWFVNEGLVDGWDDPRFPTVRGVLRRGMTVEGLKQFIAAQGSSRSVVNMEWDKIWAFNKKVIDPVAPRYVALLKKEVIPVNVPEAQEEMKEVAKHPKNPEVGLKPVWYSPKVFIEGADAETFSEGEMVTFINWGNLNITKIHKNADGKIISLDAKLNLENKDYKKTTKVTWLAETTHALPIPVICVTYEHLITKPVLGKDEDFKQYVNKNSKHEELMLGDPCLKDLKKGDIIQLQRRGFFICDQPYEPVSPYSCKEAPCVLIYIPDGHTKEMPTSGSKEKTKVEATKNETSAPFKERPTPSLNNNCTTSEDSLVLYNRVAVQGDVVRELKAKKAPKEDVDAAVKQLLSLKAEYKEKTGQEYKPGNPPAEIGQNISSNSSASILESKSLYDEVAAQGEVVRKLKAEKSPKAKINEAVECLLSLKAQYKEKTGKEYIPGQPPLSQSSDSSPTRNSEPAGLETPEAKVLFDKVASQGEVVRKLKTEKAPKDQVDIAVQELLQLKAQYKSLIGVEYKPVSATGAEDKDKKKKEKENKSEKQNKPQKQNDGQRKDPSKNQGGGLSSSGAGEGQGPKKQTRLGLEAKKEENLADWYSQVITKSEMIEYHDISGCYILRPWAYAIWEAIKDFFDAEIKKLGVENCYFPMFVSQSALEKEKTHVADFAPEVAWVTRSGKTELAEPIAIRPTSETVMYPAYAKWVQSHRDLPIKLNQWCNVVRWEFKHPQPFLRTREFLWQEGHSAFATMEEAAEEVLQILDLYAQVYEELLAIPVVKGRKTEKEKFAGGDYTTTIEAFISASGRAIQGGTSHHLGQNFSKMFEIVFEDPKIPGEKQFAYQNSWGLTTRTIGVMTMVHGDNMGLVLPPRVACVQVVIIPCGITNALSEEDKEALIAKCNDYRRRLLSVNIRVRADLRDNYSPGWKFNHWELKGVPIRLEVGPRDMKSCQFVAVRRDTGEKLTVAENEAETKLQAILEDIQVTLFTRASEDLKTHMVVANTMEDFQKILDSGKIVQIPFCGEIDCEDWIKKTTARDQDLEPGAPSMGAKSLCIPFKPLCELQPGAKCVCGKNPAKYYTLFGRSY
UniProt P11802: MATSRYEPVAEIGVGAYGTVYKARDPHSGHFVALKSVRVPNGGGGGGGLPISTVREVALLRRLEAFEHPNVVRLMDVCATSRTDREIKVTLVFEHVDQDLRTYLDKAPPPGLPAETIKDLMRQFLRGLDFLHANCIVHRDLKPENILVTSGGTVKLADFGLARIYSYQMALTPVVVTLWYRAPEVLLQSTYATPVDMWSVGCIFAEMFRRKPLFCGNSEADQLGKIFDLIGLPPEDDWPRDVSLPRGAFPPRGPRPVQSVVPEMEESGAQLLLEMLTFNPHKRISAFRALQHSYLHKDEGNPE

What follows are targets tested with COC(=O)/C=C/c1ccccc1 [methyl cinnamate] (assay: log2 ratio of iodoacetamide-alkyne labeling of the cysteine site, DMSO over compound (competition); higher = stronger covalent engagement of the cysteine by the compound, active = 1 or more). Conditions: 500 µM; treatment time 1 h; system: HEK293T cell lysate.
How it was run: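 HEK293T lysate at 2 mg/mL was treated with vehicle or electrophile (500 µM) for 1 h at ambient temperature, then labelled with iodoacetamide alkyne (1 h), clicked to sCIP-TMT reagents, pooled, digested with trypsin overnight at 37 °C, enriched on streptavidin and eluted with acid. Peptides were analysed by Orbitrap Eclipse LC-MS/MS with FAIMS and quantified in FragPipe, using duplicate channels and three replicates, with cysteines quantified in only one replicate excluded. The log2 competition ratio for each cysteine is the mean control-channel reporter intensity divided by the mean compound-channel reporter intensity.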
In the case of HSPD1 C447 (UniProt P10809), the “log2 ratio of iodoacetamide-alkyne labeling” value (shortened to “log2 ratio”) is reported as inactive: 0.397. U2AF1L5 C169 (UniProt P0DN76) was tested, and the “log2 ratio” value was inactive: -0.0653. In the case of PRKAR1A C362 (UniProt P10644), the “log2 ratio” value is reported as inactive: 0.151. RPSA C148 (UniProt P08865) was tested, and the “log2 ratio” value was inactive: 0.0931. With LTA4H C8 (UniProt P09960) the “log2 ratio” value was inactive: 0.181. With TOP1 C300 (UniProt P11387) the “log2 ratio” value was inactive: 0.25. In the case of HNRNPL C404 (UniProt P14866), the “log2 ratio” value is reported as inactive: -0.0729. For PARP1 C128 (UniProt P09874), the “log2 ratio” value was inactive: 0.314. With EEF2 C693 (UniProt P13639) the “log2 ratio” value was inactive: 0.164. PLS3 C104 (UniProt P13797) was tested, and the “log2 ratio” value was inactive: 0.588. With CTSB C319 (UniProt P07858) the “log2 ratio” value was inactive: 0.166. With RNH1 C248 (UniProt P13489) the “log2 ratio” value was inactive: 0.0979. With HSP90AA1 C572 (UniProt P07900) the “log2 ratio” value was inactive: 0.334. HSP90AB1 C366 (UniProt P08238) was tested, and the “log2 ratio” value was inactive: -0.0324. With ATP2A2 C447 (UniProt P16615) the “log2 ratio” value was inactive: 0.0446. In the case of UniProt P17812_C491, the “log2 ratio” value is reported as inactive: 0.245. In the case of PRKAR1A C18 (UniProt P10644), the “log2 ratio” value is reported as inactive: 0.389. In the case of UniProt P08240_C424, the “log2 ratio” value is reported as inactive: 0.196. With PFKM C351 (UniProt P08237) the “log2 ratio” value was inactive: -0.123. VIM C328 (UniProt P08670) was tested, and the “log2 ratio” value was inactive: 0.0263. With HNRNPL C521 (UniProt P14866) the “log2 ratio” value was inactive: 0.00341. In the case of IMPDH2 C331 (UniProt P12268), the “log2 ratio” value is reported as inactive: 0.0594. In the case of GLUL C359 (UniProt P15104), the “log2 ratio” value is reported as inactive: 0.315. With PARP1 C256 (UniProt P09874) the “log2 ratio” value was inactive: 0.252. In the case of DLD C484 (UniProt P09622), the “log2 ratio” value is reported as inactive: 0.0486. PTPN2 C330 (UniProt P17706) was tested, and the “log2 ratio” value was inactive: 0.403. For EPRS C660 (UniProt P07814), the “log2 ratio” value was inactive: -0.126. For EPRS C697 (UniProt P07814), the “log2 ratio” value was inactive: 0.0346. With JUP C90 (UniProt P14923) the “log2 ratio” value was inactive: -0.0324. For GYS1 C575 (UniProt P13807), the “log2 ratio” value was inactive: 0.327. With PFKM C114 (UniProt P08237) the “log2 ratio” value was inactive: 0.497. CDK4 C135 (UniProt P11802) was tested, and the “log2 ratio” value was inactive: 0.0581. For EEF2 C41 (UniProt P13639), the “log2 ratio” value was inactive: 0.212. In the case of PLS3 C566 (UniProt P13797), the “log2 ratio” value is reported as inactive: -0.0946. In the case of DSP C3 (UniProt P15924), the “log2 ratio” value is reported as inactive: 0.198. For EEF2 C812 (UniProt P13639), the “log2 ratio” value was inactive: -0.0064. With PARP1 C429 (UniProt P09874) the “log2 ratio” value was inactive: 0.237.
